# From article doi:10.1101/2024.08.13.607559
# Molecular target: T1, Mitochondrial ribosomal protein small subunit 34 (Mrps34), zebrafish (zebrafish (endogenous in 24hpf embryos)) (UniProt F1QEG6)
# T1 sequence: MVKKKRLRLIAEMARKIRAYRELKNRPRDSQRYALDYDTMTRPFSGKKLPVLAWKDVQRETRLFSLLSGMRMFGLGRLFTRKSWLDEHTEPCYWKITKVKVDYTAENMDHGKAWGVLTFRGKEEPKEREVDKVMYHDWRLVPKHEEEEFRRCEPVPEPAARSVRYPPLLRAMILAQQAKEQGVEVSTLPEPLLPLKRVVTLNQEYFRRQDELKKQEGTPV
# Assay: co-IP
row,binding,Substance
1,binds,"full-length Foxg1, zebrafish"
2,binds,"cleaved C-terminal Foxg1 fragment (C-Foxg1), zebrafish (domain or fragment)"

# These are yes or no findings as the source states them, for the method shown. In cells and extracts the contact can be indirect. A result given as binding can be weak or reduced; the word gives no strength.
